Assay results from PubChem BioAssay AID179 (DTP/NCI, 2004).
pEC50, pIC50: −log10 of the molar value.

Test system: CEM cells HIV-1 protection, formazan growth assay
Test: NCI AIDS Antiviral Assay
Method in brief: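 Screen of anti-HIV-1 activity in human CEM cells using a formazan-based growth measurement at five drug concentrations. Hits with 50% or greater protection were repeated, and confirmation required reproducible complete protection.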

With `CN[C@H]1CCc2cc(OC)c(OC)c(OC)c2-c2ccc(SC)c(=O)cc21` as the molecule, how does the pEC50 read?
The pEC50 was < 6.70.

And the pIC50 (measured here: growth of uninfected CEM cells)?
Its pIC50 is 8.86.
